For at least one compound, name, drawing or mass did not settle the structure.
Assays:
human platelets = assay: Generation of diacylglycerol second messengers in platelets in response to thrombin; type: cell-based; details: 25 μM
protein kinase C [1] = assay: Mixed micellar protein kinase C activity assay for lysosphingolipids (Table VI); type: biochemical; details: for Inhibition of Protein Kinase C, concentration giving 50% inhibition, (mol %): 0.3% Triton X-100, 1 mol % = 43 μM; for IC50: 0.3% Triton X-100 mixed micelles, 2 mol % dioleoylglycerol, read-out: Inhibition of Protein Kinase C, concentration giving 50% inhibition; for IC50 / inhibition of protein kinase C activity: 6 mol % phosphatidylserine; for inhibition of protein kinase C activity: 2 mol % sn-1,2-dioleoylglycerol, 100 μM Ca2+
Description: (§1) TABLE VI: Inhibition of protein kinase C activity and phorbol-dibutyrate binding by lysosphingolipids. […] The remaining two columns show the observed effects of the lysosphingolipids of protein kinase C activity and phorbol diester binding in vitro and in human platelets. Lysogangliosides were prepared from their parental gangliosides by hydrolysis in methanolic KOH esentially as described by Neuenhofer et al. in Bioch. 24, 525, 1985. During this preparation, with approximately 90-95% conversion, the N-acetate of N-acetylneuraminic acid is partially hydrolyzed. Fatty acids were partitioned into heptane after acidification of the methanolic reaction mixture. Galactosylsphingosine, glucosylsphingosine, and lactosylsphingosine were prepared as previously described for galactosylsphingosine (Radin, Lipids 9, 358, 1974) Sphingosylphosphorylcholine was prepared by hydrolysis in HCl-butanol (Kaller, Biochemische Zeitschrift 334, 451, 1961). The purity of the lyso derivatives (greater than 90%) was checked by thin layer chromatography (TLC) on silica gel H plates developed in chloroform/methanol/2N NH4 OH (65/35/9) and visualized by ninhydrin reaction for N-lyso compounds, by α-naphthol/sulfuric acid for both gangliosides and lysogangliosides,and by a phospholipid spray for sphingosylphosphorylcholine. Lysosphingolipids were quantitated by reaction of the amine group with trinitrobenzenesulfonate. Gangliosides and lysosphingolipids were also quantitated by reaction with anthrone. The lysosphingolipids were then studied for their effect on protein kinase C activity. Protein kinase C was purified to near homogeneity by the method of Wolf et al. (J. Biol. Chem. 260, 15718, 1985), and activity was measured using a mixed micellar assay (described herein). Lysosphingolipids were added directly in aqueous solution, and allowed to equilibrate with the Triton X-100 (0.3% w/v) mixed micelles containing 6 mol % phosphatidylserine and 2 mol % dioleoylglycerol. […] Phorbol-dibutyrate binding was measured in a mixed micellar assay. Lysosphingolipids inhibited phorbol-dibutyrate binding to protein kinase C in the presence of Triton X-100 mixed micelles containing 20 mol % phosphatidylserine. […] The difference is related to the higher concentration of phosphatidylserine used in the binding assay, as both activity and binding show a high cooperative dependence on phosphatidylserine, which modulates the inhibition by lysosphingolipids. Phorbol-dibutyrate binding to human platelets and 40 kDa phosphorylation in platelets were carried out as described above. Lysosphingolipids inhibited phorbol dibutyrate binding to human platelets at concentrations in the 10-50 μM range. Inhibition of 40 kDa phosphorylation occurred over the same concentration range.

protein kinase C [2] = assay: Phorbol-dibutyrate binding to protein kinase C, mixed micellar assay (Table VI); details: Triton X-100 mixed micelles, 20 mol % phosphatidylserine; for IC50: read-out: Inhibition of [3H]PDBu Binding to Protein Kinase
Description: as §1

SMILES	effect on generation of diacylglycerol second messengers in response to thrombin (human platelets)	Inhibition of Protein Kinase C, concentration giving 50% inhibition, (mol %) (protein kinase C [1])	IC50 (protein kinase C [1]) [µM]	inhibition of protein kinase C activity (protein kinase C [1])	Inhibition of [3H]PDBu Binding to Protein Kinase, (mol %) (protein kinase C [2])	IC50 (protein kinase C [2]) [µM]
CCCCCCCCCCCCC/C=C/[C@@H](O)[C@@H](N)CO[C@@H]1O[C@H](CO)[C@H](O)[C@H](O)[C@H]1O [galactosylsphingosine]	did not affect	2	85	potent inhibitors	11.6	500
CCCCCCCCCCCCC/C=C/[C@@H](O)[C@@H](N)CO[C@@H]1O[C@H](CO)[C@@H](O)[C@H](O)[C@H]1O [glucosylsphingosine]		2	85		9.3	400
CCCCCCCCCCCCC/C=C/[C@@H](O)[C@@H](N)CO[C@@H]1O[C@H](CO)[C@@H](O[C@@H]2O[C@H](CO)[C@H](O)[C@H](O)[C@H]2O)[C@H](O)[C@H]1O [lactosylsphingosine]		3	130			
CCCCCCCCCCCCC/C=C/[C@@H](O)[C@@H](N)CO[C@@H]1O[C@H](CO)[C@H](O)[C@H](OS(=O)(=O)O)[C@H]1O [sulfogalactosylsphingosine]		3.5	150	potent inhibitors	10.5	450

From patent US4937232A, “Inhibition of protein kinase C by long-chain bases” (priority 1988, dated 1990)
